Source: the supplement of paper PMC6411743
± gives the standard deviation of the averaged measurements. This is a selection; strong and weak results do not stand in their true shares.

Amino acid sequences for entries named in this document (tags omitted). A change or cut given only in a name is not applied to a line headed by its entry.
UniProt Q8N6T3: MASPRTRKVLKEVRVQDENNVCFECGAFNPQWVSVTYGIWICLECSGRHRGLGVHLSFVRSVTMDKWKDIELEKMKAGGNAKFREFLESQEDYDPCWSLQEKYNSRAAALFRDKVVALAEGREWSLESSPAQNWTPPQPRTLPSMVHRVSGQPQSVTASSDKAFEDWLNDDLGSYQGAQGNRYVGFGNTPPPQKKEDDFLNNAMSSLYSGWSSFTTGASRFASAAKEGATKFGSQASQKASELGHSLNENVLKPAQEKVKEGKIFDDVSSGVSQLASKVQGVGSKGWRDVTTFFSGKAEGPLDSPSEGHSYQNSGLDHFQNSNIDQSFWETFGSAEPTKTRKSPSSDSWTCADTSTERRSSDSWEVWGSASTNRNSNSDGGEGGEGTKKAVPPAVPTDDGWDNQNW
UniProt Q86UA6: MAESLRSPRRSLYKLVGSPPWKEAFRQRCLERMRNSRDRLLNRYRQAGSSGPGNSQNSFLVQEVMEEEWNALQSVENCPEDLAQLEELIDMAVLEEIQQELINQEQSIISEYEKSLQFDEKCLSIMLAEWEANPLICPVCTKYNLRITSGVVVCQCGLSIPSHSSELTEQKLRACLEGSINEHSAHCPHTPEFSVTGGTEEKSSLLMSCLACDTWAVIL
UniProt Q86VX2, whole entry: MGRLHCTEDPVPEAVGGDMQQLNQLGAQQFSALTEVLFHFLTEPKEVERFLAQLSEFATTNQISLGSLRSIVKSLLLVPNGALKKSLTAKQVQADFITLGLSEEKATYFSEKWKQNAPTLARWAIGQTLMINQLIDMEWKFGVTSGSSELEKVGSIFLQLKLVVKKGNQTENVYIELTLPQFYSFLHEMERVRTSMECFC
UniProt Q86XL3: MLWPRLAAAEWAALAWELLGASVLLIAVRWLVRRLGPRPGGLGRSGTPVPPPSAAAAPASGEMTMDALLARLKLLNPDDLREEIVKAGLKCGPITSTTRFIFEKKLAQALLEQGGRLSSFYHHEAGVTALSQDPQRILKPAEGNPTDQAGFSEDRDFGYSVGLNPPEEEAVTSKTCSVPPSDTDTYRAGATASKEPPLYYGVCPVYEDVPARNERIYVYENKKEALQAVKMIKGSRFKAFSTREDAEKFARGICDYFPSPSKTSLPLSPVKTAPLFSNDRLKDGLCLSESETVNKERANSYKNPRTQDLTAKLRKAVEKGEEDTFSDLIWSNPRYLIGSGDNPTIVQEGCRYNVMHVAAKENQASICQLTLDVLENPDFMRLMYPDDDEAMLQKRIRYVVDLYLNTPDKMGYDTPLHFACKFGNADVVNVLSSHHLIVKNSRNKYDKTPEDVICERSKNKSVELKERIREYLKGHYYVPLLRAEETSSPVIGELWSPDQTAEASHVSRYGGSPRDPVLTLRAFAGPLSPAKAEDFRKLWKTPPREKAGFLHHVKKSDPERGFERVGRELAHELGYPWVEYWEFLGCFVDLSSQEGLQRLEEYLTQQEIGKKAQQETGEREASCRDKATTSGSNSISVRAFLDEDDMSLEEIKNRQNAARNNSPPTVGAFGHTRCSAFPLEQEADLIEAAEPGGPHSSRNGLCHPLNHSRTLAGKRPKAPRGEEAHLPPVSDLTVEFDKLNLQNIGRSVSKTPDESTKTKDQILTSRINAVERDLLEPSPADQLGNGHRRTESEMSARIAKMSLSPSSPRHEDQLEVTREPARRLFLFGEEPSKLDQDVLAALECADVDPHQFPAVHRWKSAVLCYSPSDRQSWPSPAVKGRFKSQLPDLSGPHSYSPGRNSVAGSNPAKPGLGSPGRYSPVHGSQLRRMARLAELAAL
UniProt Q8N4P3, whole entry: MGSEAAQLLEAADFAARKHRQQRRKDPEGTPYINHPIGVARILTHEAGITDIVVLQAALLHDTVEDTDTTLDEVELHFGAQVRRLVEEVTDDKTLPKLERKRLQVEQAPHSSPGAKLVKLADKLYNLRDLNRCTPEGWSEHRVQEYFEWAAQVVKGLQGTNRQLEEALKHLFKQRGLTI
UniProt Q8IW35: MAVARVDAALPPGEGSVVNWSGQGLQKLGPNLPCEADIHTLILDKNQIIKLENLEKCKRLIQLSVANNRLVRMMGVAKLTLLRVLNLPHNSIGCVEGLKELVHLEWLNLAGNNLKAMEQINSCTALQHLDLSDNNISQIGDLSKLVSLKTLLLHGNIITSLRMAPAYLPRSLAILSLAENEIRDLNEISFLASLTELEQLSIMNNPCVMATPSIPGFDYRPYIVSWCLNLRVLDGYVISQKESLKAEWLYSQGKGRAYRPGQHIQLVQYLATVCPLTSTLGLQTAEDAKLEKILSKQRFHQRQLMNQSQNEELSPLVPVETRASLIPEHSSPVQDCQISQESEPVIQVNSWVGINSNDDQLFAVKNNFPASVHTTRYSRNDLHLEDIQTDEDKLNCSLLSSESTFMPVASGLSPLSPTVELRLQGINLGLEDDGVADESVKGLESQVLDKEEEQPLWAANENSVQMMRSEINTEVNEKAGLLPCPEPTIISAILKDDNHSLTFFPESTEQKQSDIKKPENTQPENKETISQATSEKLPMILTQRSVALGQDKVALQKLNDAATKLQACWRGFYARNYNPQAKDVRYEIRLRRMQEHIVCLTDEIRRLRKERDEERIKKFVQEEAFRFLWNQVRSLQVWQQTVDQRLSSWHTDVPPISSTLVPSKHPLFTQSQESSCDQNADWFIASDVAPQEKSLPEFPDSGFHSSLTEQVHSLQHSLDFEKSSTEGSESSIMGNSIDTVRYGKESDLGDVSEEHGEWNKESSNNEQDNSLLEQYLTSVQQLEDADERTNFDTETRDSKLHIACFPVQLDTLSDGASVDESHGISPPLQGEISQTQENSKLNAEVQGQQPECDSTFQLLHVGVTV
UniProt Q86VN1: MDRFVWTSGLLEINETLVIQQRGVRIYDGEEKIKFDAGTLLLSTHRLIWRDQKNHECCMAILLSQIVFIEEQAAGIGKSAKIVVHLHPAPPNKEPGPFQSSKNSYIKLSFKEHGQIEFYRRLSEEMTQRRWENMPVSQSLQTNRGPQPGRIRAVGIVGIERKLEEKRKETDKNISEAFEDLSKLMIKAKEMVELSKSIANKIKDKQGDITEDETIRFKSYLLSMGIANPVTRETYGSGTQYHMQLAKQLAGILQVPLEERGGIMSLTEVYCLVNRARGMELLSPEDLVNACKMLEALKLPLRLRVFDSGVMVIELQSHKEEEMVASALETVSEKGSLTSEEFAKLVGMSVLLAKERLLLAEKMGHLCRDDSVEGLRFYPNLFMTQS
UniProt Q86UW6: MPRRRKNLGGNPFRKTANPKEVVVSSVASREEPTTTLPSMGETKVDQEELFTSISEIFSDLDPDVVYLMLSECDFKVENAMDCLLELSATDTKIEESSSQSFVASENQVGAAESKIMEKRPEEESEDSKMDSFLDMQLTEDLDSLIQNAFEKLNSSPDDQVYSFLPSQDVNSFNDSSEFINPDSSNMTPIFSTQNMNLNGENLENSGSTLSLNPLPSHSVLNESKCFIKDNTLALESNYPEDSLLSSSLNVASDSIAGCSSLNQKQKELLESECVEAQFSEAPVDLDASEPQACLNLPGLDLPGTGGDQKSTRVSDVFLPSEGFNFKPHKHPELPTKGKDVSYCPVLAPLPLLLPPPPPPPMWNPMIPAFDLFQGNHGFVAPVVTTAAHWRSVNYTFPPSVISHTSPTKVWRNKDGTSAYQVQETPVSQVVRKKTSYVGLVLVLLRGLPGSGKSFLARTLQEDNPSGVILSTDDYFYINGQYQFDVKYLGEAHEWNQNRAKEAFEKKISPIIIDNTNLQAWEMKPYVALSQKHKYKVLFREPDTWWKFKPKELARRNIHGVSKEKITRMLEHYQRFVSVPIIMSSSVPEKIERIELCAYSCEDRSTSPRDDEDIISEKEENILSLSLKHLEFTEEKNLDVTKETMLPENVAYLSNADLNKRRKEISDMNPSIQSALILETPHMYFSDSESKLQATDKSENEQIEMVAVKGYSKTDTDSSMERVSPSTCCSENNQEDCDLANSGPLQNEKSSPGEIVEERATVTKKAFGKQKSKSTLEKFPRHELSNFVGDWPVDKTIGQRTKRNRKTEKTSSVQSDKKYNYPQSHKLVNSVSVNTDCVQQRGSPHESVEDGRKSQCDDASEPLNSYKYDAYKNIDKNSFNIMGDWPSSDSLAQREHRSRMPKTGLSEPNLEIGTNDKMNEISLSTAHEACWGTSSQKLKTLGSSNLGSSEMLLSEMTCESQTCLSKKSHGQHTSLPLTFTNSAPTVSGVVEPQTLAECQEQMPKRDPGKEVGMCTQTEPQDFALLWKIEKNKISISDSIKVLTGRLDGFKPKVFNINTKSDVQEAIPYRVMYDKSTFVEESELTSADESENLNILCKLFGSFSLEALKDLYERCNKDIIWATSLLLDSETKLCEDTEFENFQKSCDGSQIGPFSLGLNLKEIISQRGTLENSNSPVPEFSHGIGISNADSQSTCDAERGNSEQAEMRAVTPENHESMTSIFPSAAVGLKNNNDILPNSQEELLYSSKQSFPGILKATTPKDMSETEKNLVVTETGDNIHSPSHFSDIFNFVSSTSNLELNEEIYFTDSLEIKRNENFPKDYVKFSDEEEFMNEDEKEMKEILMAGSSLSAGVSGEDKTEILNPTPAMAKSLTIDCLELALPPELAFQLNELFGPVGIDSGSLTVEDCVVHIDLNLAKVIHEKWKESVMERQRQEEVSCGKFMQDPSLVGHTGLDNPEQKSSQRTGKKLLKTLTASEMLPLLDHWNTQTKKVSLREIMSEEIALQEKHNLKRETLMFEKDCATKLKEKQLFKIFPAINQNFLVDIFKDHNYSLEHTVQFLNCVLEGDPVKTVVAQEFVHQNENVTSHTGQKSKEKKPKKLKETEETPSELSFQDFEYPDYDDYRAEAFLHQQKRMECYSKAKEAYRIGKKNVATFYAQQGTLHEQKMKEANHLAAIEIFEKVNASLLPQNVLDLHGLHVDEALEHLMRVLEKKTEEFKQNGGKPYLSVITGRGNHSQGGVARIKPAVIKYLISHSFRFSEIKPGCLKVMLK
UniProt Q8IXZ2: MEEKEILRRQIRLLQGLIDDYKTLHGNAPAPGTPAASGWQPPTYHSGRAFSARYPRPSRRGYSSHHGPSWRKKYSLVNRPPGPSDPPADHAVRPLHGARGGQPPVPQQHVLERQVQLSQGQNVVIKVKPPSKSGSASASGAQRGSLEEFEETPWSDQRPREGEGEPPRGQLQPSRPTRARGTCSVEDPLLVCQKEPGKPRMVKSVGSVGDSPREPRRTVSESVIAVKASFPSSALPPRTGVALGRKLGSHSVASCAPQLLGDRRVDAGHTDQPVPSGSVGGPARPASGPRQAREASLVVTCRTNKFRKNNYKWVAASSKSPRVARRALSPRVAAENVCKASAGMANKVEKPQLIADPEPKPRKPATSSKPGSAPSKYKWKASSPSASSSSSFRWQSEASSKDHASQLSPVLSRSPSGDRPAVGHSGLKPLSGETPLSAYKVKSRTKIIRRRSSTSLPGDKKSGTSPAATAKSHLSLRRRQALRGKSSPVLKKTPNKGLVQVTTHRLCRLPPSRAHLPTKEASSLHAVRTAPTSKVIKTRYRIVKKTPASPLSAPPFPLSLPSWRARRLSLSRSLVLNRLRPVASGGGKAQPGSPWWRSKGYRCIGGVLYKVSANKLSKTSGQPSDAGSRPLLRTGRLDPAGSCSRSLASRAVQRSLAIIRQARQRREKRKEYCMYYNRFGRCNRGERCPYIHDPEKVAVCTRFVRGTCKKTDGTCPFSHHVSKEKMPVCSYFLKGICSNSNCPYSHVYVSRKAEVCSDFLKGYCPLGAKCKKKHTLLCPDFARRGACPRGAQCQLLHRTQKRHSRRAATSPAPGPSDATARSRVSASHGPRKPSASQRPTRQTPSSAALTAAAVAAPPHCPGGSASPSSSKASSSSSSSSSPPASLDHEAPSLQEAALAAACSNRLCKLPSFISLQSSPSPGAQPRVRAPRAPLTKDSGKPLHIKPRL
UniProt Q86TM6, whole entry: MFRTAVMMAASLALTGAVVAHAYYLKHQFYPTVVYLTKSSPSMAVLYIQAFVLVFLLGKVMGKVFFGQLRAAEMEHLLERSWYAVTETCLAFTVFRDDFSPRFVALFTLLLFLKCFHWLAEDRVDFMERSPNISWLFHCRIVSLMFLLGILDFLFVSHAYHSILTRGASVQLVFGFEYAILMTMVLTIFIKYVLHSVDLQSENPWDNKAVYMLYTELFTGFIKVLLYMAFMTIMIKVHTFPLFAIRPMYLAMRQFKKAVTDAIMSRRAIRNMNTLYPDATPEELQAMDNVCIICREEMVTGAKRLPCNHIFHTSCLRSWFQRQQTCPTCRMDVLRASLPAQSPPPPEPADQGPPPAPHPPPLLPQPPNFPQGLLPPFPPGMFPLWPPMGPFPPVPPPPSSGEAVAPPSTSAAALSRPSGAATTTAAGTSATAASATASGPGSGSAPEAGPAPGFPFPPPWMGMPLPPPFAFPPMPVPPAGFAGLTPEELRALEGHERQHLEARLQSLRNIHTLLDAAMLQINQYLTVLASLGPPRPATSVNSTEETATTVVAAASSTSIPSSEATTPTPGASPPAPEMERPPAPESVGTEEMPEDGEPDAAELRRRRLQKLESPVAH

Compound: Nc1ncnc2c1ncn2[C@@H]1O[C@H](COP(=O)(O)OP(=O)(O)NP(=O)(O)O)[C@@H](O)[C@H]1O [adenylyl imidodiphosphate]
Assay: NP40-soluble protein abundance relative to vehicle (solubility fold change) (ratio); higher = more soluble protein in presence of AMP-PNP
Method in brief: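 Values are fold changes against the detergent-processed vehicle, based on vsn-normalised intensities. Jurkat crude lysate was treated at eight concentrations from 0.1 to 10 mM (10 min at room temperature, then 3 min at 37 °C), solubilised with 0.8% NP40 and benzonase, ultracentrifuged and analysed by TMT-labelled LC-MS/MS over three independent experiments.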

Target	NP40-soluble protein abundance (concentration: 1mM)	NP40-soluble protein abundance (concentration: 2mM)	NP40-soluble protein abundance (concentration: 4mM)	NP40-soluble protein abundance (concentration: 6mM)	NP40-soluble protein abundance (concentration: 8mM)	NP40-soluble protein abundance (concentration: 10mM)
ANKRD13A (UniProt Q8IZ07)	0.985 ± 0.017	0.981 ± 0.013	1.04 ± 0.029	1.06 ± 0.061	1.04 ± 0.03	1.08 ± 0.047
UniProt Q8IWY9 and related entries	0.971 ± 0.023	0.982 ± 0.023	0.977 ± 0.023	0.976 ± 0.027	0.969 ± 0.034	0.98 ± 0.082
UniProt Q8N0X7	0.966 ± 0.051	1.02 ± 0.076	0.951 ± 0.029	0.983 ± 0.018	0.935 ± 0.028	1.01 ± 0.028
ARFGAP1 (UniProt Q8N6T3)	1.02 ± 0.021	1.02 ± 0.023	1.02 ± 0.016	1.02 ± 0.023	0.993 ± 0.018	1.01 ± 0.038
UniProt Q8N5M4 and related entries	0.932 ± 0.054	0.94 ± 0.03	0.91 ± 0.032	0.984 ± 0.064	0.961 ± 0.055	0.938 ± 0.071
UniProt Q86UA6 and related entries	1.02 ± 0.017	0.98 ± 0.038	0.956 ± 0.034	0.9421 ± 0.0054	0.938 ± 0.038	0.908 ± 0.045
UniProt Q86VX2 and related entries	1.01 ± 0.016	0.992 ± 0.039	0.99056 ± 0.00036	1.06 ± 0.019	1.034 ± 0.0047	1.058 ± 0.0047
EXOC8 (UniProt Q8IYI6)	1.07 ± 0.047	0.989 ± 0.026	0.964 ± 0.03	0.976 ± 0.032	0.947 ± 0.026	0.948 ± 0.035
UniProt Q86XL3 and related entries	0.997 ± 0.03	1.01 ± 0.04	1.02 ± 0.047	1.01 ± 0.029	0.982 ± 0.049	1.02 ± 0.038
UniProt Q8N4P3 and related entries	1 ± 0.046	1 ± 0.062	1.01 ± 0.041	0.986 ± 0.019	0.97 ± 0.038	0.955 ± 0.062
ASCC3 (UniProt Q8N3C0)	1.06 ± 0.011	1.07 ± 0.029	1.1 ± 0.013	1.1 ± 0.095	1.15 ± 0.095	1.2 ± 0.082
DDX60 (UniProt Q8IY21)	1.06 ± 0.05	1.11 ± 0.058	1.17 ± 0.029	1.19 ± 0.062	1.26 ± 0.089	1.3 ± 0.066
UniProt Q8NBU5	1.02 ± 0.015	0.974 ± 0.029	0.993 ± 0.023	1 ± 0.019	1.01 ± 0.035	1.02 ± 0.041
UniProt Q8N4V1 and related entries	0.976 ± 0.018	0.988 ± 0.042	0.9576 ± 0.0062	1.02 ± 0.015	1.02 ± 0.024	0.9843 ± 0.0083
UniProt Q8IW35 and related entries	0.984 ± 0.027	0.982 ± 0.059	0.982 ± 0.024	0.962 ± 0.015	0.952 ± 0.033	0.963 ± 0.01
UniProt Q86VN1 and related entries	0.983 ± 0.02	0.935 ± 0.05	0.991 ± 0.037	1.01 ± 0.022	1.01 ± 0.023	0.992 ± 0.032
UniProt Q86UW6 and related entries	1.03 ± 0.047	1.03 ± 0.037	1.01 ± 0.053	0.977 ± 0.061	0.945 ± 0.044	0.953 ± 0.053
ZC3H3 (UniProt Q8IXZ2)	0.992 ± 0.056	1.02 ± 0.04	1 ± 0.023	1 ± 0.049	1.026 ± 0.0077	1.05 ± 0.046
ARL6IP6 (UniProt Q8N6S5)	1.02 ± 0.034	1.02 ± 0.028	1.04 ± 0.022	0.971 ± 0.011	1.01 ± 0.025	1.01 ± 0.025
UniProt Q8N128 and related entries	1.03 ± 0.043	1.05 ± 0.031	1.04 ± 0.024	1.02 ± 0.0077	0.981 ± 0.02	1.01 ± 0.056
UniProt Q86W42 and related entries	1.17 ± 0.087	1.25 ± 0.065	1.36 ± 0.11	1.49 ± 0.1	1.65 ± 0.18	1.67 ± 0.27
C1orf52 (UniProt Q8N6N3)	0.966 ± 0.027	1.01 ± 0.08	0.993 ± 0.011	0.9843 ± 0.0059	0.947 ± 0.017	0.965 ± 0.014
TTC39C (UniProt Q8N584)	0.978 ± 0.032	0.996 ± 0.068	0.981 ± 0.045	0.969 ± 0.032	0.96 ± 0.042	0.961 ± 0.07
ZCCHC7 (UniProt Q8N3Z6)	1.097 ± 0.0021	1.08 ± 0.071	1.1 ± 0.02	1.07 ± 0.017	1.1 ± 0.017	1.1 ± 0.036
UniProt Q8IYS2 and related entries	0.998 ± 0.019	0.9791 ± 0.0085	0.999 ± 0.034	0.97 ± 0.033	0.97 ± 0.012	0.989 ± 0.036
UniProt Q86TM6 and related entries	0.97 ± 0.021	0.993 ± 0.075	0.996 ± 0.042	0.963 ± 0.026	0.987 ± 0.039	0.985 ± 0.037

As entered above:
Under NP40-soluble protein abundance (concentration: 6mM), ARL6IP6 (UniProt Q8N6S5) reads 0.971 ± 0.011
Under NP40-soluble protein abundance (concentration: 4mM), UniProt Q86VX2 and related entries reads 0.99056 ± 0.00036
